# Results deposited as PubChem BioAssay AID686938 (Drosophila RNAi Screening Center, 2013).
# Aim: 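Fly genes required for calcium entry once internal stores are emptied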 (primary screen)
# System: Drosophila S2R+ cells
# Knock-down reagent: long dsRNA against Drosophila genes, about 0.25 µg dsRNA per well, roughly 10,000 cells
# Time to read-out: 5 days of knock-down before the calcium assay
# Treatment: thapsigargin (SERCA pump blocker) to empty calcium stores; entry signal taken 4 min after adding it
# Measurement: 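Duplicate raw fluo-4 intensities per well from a plate reader, at rest and four minutes after thapsigargin emptied calcium stores; entry-to-rest ratio filled for only some wells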
# Reading the numbers: calcium entry signal: higher = stronger calcium signal after store depletion; entry to resting ratio: higher = more calcium entry relative to resting level; resting calcium signal: higher = higher resting calcium signal
# Call rule: 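Called when the plate z-score of the entry-to-rest ratio, mean of duplicates, falls below −3; wells with low overall dye signal (Fmax z below −2) or more than five off-targets excluded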
# Meaning of the calls: active = strongly reduced calcium entry; inactive = no strong reduction
# The screen tested about 23,000 reagents; below is an unselected part of those with a known target gene and a result. Of all reagents, 75 (0.33%) are marked active. 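Raw plate signals without normalisation; calls rest on plate z-scores that were not deposited; ratio present for only 364 wells.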 The numbers tell different reagents against one gene apart. The record does not give: the dose of the treatment.
gene knocked down,reagent no.,"calcium entry signal, replicate 1 (fluorescence units)","calcium entry signal, replicate 2 (fluorescence units)",entry to resting ratio,"resting calcium signal, replicate 1 (fluorescence units)","resting calcium signal, replicate 2 (fluorescence units)",Outcome
bun,1,4.06e7,4.37e7,,1.94e7,1.94e7,inactive
bun,2,3.89e7,4.37e7,,1.87e7,1.93e7,inactive
bun,3,3.35e7,,,2.32e7,,inactive
bun,4,4.53e7,3.05e7,,2.30e7,1.48e7,inactive
DIP-theta,1,2.72e7,5.20e7,,1.50e7,2.33e7,inactive
DIP-theta,2,2.36e7,2.44e7,,1.19e7,1.24e7,inactive
DIP-theta,3,2.79e7,2.92e7,,1.70e7,1.51e7,inactive
CG9029,1,3.84e7,3.32e7,,1.82e7,1.68e7,inactive
Gr93d,1,4.10e7,6.45e7,,1.96e7,3.08e7,inactive
CG5746,1,3.75e7,2.95e7,,1.84e7,1.40e7,inactive
Flo1,1,2.81e7,2.14e7,,1.17e7,1.13e7,inactive
hyx,1,2.56e7,3.01e7,,1.33e7,1.58e7,inactive
GV1,1,3.91e7,3.91e7,,2.09e7,1.98e7,inactive
CG18301,1,3.64e7,4.78e7,,1.85e7,2.00e7,inactive
Sec3,1,3.73e7,4.79e7,,1.82e7,3.22e7,inactive
CG8366,1,2.82e7,2.96e7,,1.31e7,1.51e7,inactive
CG4998,1,4.10e7,5.66e7,,2.02e7,2.55e7,inactive
CG4998,2,4.09e7,4.10e7,,2.32e7,1.95e7,inactive
CG11927,1,3.36e7,,,1.70e7,,inactive
CG10918,1,4.41e7,3.76e7,,1.92e7,1.40e7,inactive
SPH93,1,4.62e7,2.97e7,,2.04e7,1.38e7,inactive
CG34057,1,2.12e7,3.42e7,,1.15e7,1.40e7,inactive
CG6398,1,3.12e7,3.58e7,,1.46e7,1.64e7,inactive
Or19a,1,4.76e7,5.16e7,,2.53e7,2.32e7,inactive
Mhc,1,2.24e7,1.71e7,,1.23e7,9.18e6,inactive
Hgsnat,1,2.72e7,2.13e7,,1.11e7,1.02e7,inactive
Sec20,1,4.63e7,3.09e7,,2.23e7,1.64e7,inactive
Dhfr,1,2.98e7,5.75e7,,1.62e7,7.41e7,inactive
fh,1,1.94e7,3.62e7,,1.08e7,1.63e7,inactive
mthl11,1,2.55e7,3.86e7,,1.30e7,1.74e7,inactive
CG13891,1,3.75e7,4.20e7,,1.99e7,1.98e7,inactive
Taf6,1,2.42e7,1.63e7,,1.95e7,9.13e6,inactive
CG12910,1,3.83e7,3.77e7,,1.67e7,1.76e7,inactive
Ir75a,1,3.33e7,4.82e7,,1.77e7,2.14e7,inactive
wdp,1,3.23e7,,,1.60e7,,inactive
CG9308,1,4.77e7,4.39e7,,2.11e7,1.89e7,inactive
CG12831,1,5.28e7,4.07e7,,2.29e7,1.62e7,inactive
Tie,1,3.43e7,3.44e7,,1.89e7,1.54e7,inactive
Tie,2,2.65e7,3.08e7,,1.28e7,1.29e7,inactive
CG14803,1,6.75e7,5.78e7,2.2,3.04e7,2.23e7,inactive
Alg3,1,3.77e7,,,1.84e7,,inactive
CG15399,1,3.80e7,5.11e7,,1.76e7,1.84e7,inactive
erm,1,4.11e7,,,2.36e7,,inactive
CG33642,1,3.66e7,4.77e7,,1.95e7,1.98e7,inactive
CG34176,1,3.67e7,3.58e7,,1.91e7,1.71e7,inactive
Sptz,1,3.06e7,2.65e7,,1.46e7,1.35e7,inactive
hgo,1,4.60e7,5.77e7,,2.02e7,2.45e7,inactive
beat-Vc,1,4.09e7,3.85e7,,2.18e7,1.77e7,inactive
beat-Vc,2,4.08e7,3.16e7,,2.02e7,1.53e7,inactive
Tcs5,1,2.94e7,4.95e7,,1.62e7,2.62e7,inactive
DppIII,1,2.79e7,2.63e7,,1.24e7,1.22e7,inactive
Liprin-alpha,1,2.86e7,,,1.55e7,,inactive
RpLP0,1,2.37e7,3.65e7,,1.26e7,1.82e7,inactive
RpLP0,2,1.15e7,2.44e7,,7.97e6,1.40e7,inactive
CG42663,1,3.64e7,4.09e7,,1.89e7,1.90e7,inactive
CG42663,2,3.39e7,5.17e7,,1.65e7,2.21e7,inactive
CG13690,1,3.78e7,4.26e7,,1.81e7,1.72e7,inactive
CG31793,1,3.67e7,3.58e7,,1.72e7,1.63e7,inactive
